Values from PubChem BioAssay AID1224826 (NIAID, 2016).
Screen: 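Knock-downs that raise or lower Tnf reporter signal after endotoxin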 (primary screen). Cells: RAW264.7 G9 macrophages from mouse bearing reporters for p65 (GFP) and the Tnf promoter (mCherry). Knock-down reagent: siRNA pool against mouse genes, 100 nM. Timing: 16 h of LPS stimulation, after 2 days of siRNA transfection. Challenge: bacterial lipopolysaccharide (Salmonella minnesota R595), 10 ng/ml. Read-out: 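Nuclear mCherry signal of the Tnf promoter reporter measured by imaging after background removal, scaled to each plate median and turned into robust z-scores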. Reading the numbers: Tnf reporter robust z-score: higher = stronger Tnf promoter reporter signal after LPS. Rule for the call: 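Called active when robust z-score is at most -1.3, matching the median of the Tlr4 knock-down control, or over 3; control wells and wells with under 50 cells never active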. Calls: active = Tnf reporter clearly lowered or raised; inactive = no clear change in Tnf reporter.
The whole screen tested about 17,000 reagents; shown is a random part of them. Of all reagents, about 1,110 (6.6%) were called active. 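Active means lowered or raised reporter signal; replicate intensities are raw and not normalised per plate.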 Unmarked entries are inactive. Further read-outs or replicates are left out here.

With knock-down of Armc12 (armadillo repeat containing 12), the record shows fewer than 50 cells in well fewer than 50 cells per well; well left out of calls.
Against B4gat1 (beta-1,4-glucuronyltransferase 1), the values are Tnf reporter robust z-score -0.69; fewer than 50 cells in well enough cells in well.
Col5a2 (collagen, type V, alpha 2) showed Tnf reporter robust z-score 0.07; fewer than 50 cells in well enough cells in well.
Azin2 (antizyme inhibitor 2) gave Tnf reporter robust z-score -0.68; fewer than 50 cells in well enough cells in well.
For Rpp14 (ribonuclease P 14 subunit), the entry reads Tnf reporter robust z-score 0.18; fewer than 50 cells in well enough cells in well.

Only “fewer than 50 cells in well” (2 entries from above):
Col5a2 (collagen, type V, alpha 2): enough cells in well
Azin2 (antizyme inhibitor 2): enough cells in well

Next records follow:
Silencing of Plxna4 (plexin A4) resulted in: fewer than 50 cells in well fewer than 50 cells per well; well left out of calls.
Depletion of Lrriq4 (leucine-rich repeats and IQ motif containing 4) gave: Tnf reporter robust z-score 4.29 (active); fewer than 50 cells in well enough cells in well.
Gbp2b (guanylate binding protein 2b) gave Tnf reporter robust z-score 0; fewer than 50 cells in well enough cells in well.
For Bms1 (BMS1, ribosome biogenesis factor), the entry reads Tnf reporter robust z-score 4.35 (active); fewer than 50 cells in well enough cells in well.
After knock-down of Ghdc (GH3 domain containing), the screen gave Tnf reporter robust z-score -0.32; fewer than 50 cells in well enough cells in well.
Depletion of Lamc2 (laminin, gamma 2) gave: Tnf reporter robust z-score 1.3; fewer than 50 cells in well enough cells in well.
Knock-down of Tapt1 (transmembrane anterior posterior transformation 1) came out at: fewer than 50 cells in well fewer than 50 cells per well; well left out of calls.
